Results are given in words; binding and its absence hold for the method and conditions named. For part of these data: Binding seen in cells or lysates may run through a third protein. Some binding calls cover weakened binding; strength is not graded here.

The chains behind the UniProt entries cited, without tags or fusion partners.
UniProt P09651: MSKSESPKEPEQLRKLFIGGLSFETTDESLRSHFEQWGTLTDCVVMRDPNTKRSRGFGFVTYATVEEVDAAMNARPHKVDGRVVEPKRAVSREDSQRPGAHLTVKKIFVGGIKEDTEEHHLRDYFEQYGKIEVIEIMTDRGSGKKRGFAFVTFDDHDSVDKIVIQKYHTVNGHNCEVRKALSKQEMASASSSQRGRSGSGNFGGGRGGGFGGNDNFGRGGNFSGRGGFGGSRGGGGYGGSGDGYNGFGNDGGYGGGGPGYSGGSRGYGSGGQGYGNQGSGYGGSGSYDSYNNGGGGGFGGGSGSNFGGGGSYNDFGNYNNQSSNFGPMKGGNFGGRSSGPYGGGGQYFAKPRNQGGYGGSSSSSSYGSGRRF
UniProt P04406: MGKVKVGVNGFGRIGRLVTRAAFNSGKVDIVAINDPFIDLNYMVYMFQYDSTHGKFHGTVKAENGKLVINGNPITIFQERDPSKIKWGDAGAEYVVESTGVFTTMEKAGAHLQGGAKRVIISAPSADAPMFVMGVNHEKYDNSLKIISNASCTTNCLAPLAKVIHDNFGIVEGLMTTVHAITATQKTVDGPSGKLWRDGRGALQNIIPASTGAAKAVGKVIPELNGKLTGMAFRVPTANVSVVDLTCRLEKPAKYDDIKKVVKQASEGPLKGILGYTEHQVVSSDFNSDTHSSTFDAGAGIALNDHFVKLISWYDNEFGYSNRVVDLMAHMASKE
UniProt P11142: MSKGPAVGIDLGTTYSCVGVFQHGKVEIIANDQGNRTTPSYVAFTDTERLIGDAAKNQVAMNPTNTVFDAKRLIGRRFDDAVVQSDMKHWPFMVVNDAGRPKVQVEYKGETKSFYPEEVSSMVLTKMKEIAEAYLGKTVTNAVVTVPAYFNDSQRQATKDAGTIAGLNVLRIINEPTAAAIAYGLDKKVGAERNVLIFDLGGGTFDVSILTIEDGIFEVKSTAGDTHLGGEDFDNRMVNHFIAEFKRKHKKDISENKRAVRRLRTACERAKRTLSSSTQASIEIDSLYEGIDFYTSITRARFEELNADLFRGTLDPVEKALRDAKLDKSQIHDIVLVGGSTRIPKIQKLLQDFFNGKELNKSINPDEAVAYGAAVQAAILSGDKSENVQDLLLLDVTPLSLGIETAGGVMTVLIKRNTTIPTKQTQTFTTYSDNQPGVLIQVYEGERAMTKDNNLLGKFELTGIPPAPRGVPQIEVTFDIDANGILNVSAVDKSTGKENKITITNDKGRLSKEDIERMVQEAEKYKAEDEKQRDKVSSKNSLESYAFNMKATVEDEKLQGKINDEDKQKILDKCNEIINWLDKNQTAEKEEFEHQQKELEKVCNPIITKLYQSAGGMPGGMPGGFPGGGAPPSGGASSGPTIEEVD
UniProt P11940: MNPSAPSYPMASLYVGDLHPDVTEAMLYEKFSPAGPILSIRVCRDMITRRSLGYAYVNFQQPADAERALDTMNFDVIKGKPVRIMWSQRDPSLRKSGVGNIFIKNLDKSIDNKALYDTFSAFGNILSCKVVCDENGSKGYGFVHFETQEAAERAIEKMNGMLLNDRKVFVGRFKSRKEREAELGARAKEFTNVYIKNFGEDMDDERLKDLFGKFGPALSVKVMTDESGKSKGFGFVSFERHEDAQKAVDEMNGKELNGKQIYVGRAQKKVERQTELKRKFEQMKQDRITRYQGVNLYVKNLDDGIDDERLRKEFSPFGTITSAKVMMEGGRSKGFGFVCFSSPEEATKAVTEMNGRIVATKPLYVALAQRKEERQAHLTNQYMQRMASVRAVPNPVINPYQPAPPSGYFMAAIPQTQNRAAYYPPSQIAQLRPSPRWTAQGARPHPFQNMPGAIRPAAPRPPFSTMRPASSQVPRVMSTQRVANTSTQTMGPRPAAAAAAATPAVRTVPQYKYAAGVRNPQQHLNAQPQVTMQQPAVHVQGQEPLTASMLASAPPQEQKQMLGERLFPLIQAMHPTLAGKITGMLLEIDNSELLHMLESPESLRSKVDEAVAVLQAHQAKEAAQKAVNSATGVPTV

The target of assay [1] is heterogeneous ribonucleoprotein A1 (human (endogenous in SH-SY5Y)) (UniProt P09651). Description: co-IP; immunoprecipitation of hnRNPA1 from SH-SY5Y cells, DJ-1 found in the precipitate.
The target in assay [2] is wild type DJ-1 expressed in KD1 (DJ-1 knock down SH-SY5Y) cells (UniProt Q99497). Description: native gel or EMSA; two-dimensional BN/SDS PAGE of soluble complexes, second dimension 12.5% polyacrylamide-SDS-urea gel; western blot; co-migration. (In EMSA bound probe runs differently from free probe, usually more slowly.)
Assay [3] shares this target. The assay is described as follows: native gel or EMSA; blue native PAGE of soluble complexes extracted by sonication in sucrose buffer (250 mM Sucrose, 10 mM HEPES, 1.5 mM MgCl2, 10 mM KCl, pH 7.0) from brain or cells; 7.5% or 8-16% gradient gels; western blot.
Assay [4] has as its target T1, DJ-1 (endogenous, human post mortem brain) (human (endogenous in post mortem brain)), Q99497.
T1 chain: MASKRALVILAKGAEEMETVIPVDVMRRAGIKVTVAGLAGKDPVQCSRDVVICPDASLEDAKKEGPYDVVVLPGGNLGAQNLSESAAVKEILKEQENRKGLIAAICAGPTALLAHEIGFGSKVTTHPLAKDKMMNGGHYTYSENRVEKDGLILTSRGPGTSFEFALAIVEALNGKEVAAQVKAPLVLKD
Description: SDS PAGE and western blot (SDS-resistant dimer); human post mortem cortex homogenised in 10 mM Tris, pH7.4, 150 mM NaCl, 0.1% SDS; membranes probed for total DJ-1. The settings on record: remark: other sources report otherwise. For orientation: Immunoblotting shows a protein as a band on a membrane.

As to “DJ-1 (endogenous, SH-SY5Y cells) (from UniProt Q99497 1-189)”, in assay [1], the binding result was “binds”.
Consider “Glyceraldehyde 3-phosphate dehydrogenase (from UniProt P04406 1-335)”, for which the binding result in assay [2] is given as “binds”.
With hsc70 (from UniProt P11142 1-646), the binding entry in assay [2] was “binds”.
Consider “polyadenylate-binding protein 1 (from UniProt P11940 1-636)”, for which the binding entry in assay [2] and in assay [3] was “binds” each time.

B1: DJ-1 (endogenous, human post mortem brain), Q99497 1-189 (protein)
chain: MASKRALVILAKGAEEMETVIPVDVMRRAGIKVTVAGLAGKDPVQCSRDVVICPDASLEDAKKEGPYDVVVLPGGNLGAQNLSESAAVKEILKEQENRKGLIAAICAGPTALLAHEIGFGSKVTTHPLAKDKMMNGGHYTYSENRVEKDGLILTSRGPGTSFEFALAIVEALNGKEVAAQVKAPLVLKD
As to B1, the binding entry in assay [4] is reported as “binds”.

The values are drawn from article PMC5886150.
